This is one part of the list.
Experiments:
Assay in all cases: log2 fold change, soluble protein after heating vs DMSO (PISA); higher = thermal stabilisation; K562 cells, 10 uM, 30 min; active = over 0.2 and 3.5 SD of the protein, either way, in both replicates (recomputed)
bafetinib = compound: Cc1ccc(NC(=O)c2ccc(CN3CC[C@H](N(C)C)C3)c(C(F)(F)F)c2)cc1Nc1nccc(-c2cncnc2)n1 [bafetinib]
Outline: (§1)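 Soluble protein was quantified by TMTpro 16plex LC-MS/MS after channel sums were equalised. It was obtained as the supernatant after 21,000xg for 90 min from pooled aliquots of K562 cells (2×10^6 cells/mL, 10 μM compound, 30 min) heated for 3 min across 48°C-58°C and extracted in PBS with 0.5% NP-40 at 4°C. Thermal stability values are relative to control samples and come from duplicates. They are given as log2 fold changes.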

By UniProt entry, the sequences of proteins in these tests, tags left out. Where a name states a change or a piece, a line headed by the entry shows the natural chain unless it says otherwise.
UniProt Q9H019: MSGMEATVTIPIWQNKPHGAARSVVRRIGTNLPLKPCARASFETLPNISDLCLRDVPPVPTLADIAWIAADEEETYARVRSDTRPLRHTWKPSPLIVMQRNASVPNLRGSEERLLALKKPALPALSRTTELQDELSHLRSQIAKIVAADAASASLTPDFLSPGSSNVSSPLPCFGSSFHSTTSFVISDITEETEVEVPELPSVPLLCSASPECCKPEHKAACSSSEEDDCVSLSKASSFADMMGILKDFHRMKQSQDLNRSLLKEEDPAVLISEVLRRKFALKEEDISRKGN
UniProt Q9UGC7: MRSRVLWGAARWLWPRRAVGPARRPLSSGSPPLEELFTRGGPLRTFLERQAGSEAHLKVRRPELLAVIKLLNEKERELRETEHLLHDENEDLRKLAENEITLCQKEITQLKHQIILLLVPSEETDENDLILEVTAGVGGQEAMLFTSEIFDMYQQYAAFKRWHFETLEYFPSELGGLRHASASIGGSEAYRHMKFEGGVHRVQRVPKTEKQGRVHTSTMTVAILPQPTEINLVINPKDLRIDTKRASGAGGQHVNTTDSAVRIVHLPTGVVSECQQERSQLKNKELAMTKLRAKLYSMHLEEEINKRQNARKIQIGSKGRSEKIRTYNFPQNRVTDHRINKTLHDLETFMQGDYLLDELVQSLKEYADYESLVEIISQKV
UniProt Q9H6N6: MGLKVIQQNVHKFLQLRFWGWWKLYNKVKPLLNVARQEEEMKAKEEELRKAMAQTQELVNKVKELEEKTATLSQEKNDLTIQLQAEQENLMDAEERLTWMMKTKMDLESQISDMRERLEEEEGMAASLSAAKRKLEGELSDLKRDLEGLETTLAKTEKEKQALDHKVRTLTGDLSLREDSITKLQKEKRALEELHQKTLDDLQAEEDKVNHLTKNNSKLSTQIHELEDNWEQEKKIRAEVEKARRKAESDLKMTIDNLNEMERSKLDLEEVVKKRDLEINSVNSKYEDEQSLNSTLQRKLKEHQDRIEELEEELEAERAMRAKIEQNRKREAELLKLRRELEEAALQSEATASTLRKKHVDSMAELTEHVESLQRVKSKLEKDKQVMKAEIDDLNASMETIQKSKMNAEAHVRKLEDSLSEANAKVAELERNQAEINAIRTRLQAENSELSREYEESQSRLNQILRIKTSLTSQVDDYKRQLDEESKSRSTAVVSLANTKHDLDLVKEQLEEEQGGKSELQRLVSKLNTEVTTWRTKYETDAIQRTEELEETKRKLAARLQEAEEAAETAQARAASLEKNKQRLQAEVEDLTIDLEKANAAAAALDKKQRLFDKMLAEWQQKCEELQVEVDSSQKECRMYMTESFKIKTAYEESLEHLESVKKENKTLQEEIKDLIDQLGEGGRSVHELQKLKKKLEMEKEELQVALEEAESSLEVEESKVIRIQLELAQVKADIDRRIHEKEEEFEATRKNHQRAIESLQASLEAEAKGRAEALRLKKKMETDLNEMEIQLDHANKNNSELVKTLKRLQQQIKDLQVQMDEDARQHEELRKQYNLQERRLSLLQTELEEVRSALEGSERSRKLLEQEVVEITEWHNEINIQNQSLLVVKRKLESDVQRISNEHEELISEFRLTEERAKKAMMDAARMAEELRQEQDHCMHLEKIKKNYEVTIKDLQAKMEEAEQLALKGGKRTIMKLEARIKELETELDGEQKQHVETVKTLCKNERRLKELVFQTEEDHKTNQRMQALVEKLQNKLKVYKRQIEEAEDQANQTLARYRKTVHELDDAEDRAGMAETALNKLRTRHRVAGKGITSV
UniProt P13640: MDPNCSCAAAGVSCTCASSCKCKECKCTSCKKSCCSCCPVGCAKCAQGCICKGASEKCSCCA
UniProt P03891, whole entry, looked up: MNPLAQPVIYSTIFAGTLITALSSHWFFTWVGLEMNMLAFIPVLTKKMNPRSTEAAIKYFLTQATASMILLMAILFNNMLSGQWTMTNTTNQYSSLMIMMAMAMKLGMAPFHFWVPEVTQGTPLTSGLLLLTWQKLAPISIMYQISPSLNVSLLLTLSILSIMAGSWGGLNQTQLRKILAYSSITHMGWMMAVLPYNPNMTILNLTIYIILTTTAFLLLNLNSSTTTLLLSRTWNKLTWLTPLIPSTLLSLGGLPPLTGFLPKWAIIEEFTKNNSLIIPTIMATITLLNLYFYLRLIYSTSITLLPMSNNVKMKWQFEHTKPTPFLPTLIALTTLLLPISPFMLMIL
UniProt Q9UBK8: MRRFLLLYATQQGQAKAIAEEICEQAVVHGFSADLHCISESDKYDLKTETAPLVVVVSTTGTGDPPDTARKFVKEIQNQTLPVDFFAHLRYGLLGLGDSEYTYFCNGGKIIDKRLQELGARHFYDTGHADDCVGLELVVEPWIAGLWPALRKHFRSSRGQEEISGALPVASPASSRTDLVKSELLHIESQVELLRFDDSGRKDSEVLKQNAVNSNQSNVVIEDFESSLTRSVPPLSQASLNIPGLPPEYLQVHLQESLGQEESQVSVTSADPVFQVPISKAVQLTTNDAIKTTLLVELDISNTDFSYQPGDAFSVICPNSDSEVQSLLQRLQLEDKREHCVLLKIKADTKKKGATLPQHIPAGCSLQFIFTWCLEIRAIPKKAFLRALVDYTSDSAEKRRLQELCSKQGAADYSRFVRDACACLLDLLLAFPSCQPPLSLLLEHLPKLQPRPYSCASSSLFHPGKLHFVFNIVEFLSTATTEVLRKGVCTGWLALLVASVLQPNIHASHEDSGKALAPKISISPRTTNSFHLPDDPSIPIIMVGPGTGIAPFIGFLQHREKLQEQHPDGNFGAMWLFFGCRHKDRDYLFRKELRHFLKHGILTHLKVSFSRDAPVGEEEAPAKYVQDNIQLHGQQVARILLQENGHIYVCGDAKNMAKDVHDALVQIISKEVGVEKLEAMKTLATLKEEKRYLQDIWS
UniProt P03928: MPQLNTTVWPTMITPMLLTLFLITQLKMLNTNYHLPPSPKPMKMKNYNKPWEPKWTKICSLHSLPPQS

[1] = compound: Cc1cccc(CC(=O)N2CCc3c2ccc(-c2cn(C)c4ncnc(N)c24)c3F)n1
Outline: as §1

nilotinib = compound: Cc1cn(-c2cc(NC(=O)c3ccc(C)c(Nc4nccc(-c5cccnc5)n4)c3)cc(C(F)(F)F)c2)cn1 [nilotinib]
Outline: as §1

[2] = compound: Cc1nc(Nc2n[nH]c3c2CN(C(=O)N[C@H](CN(C)C)c2ccccc2)C3(C)C)c2sccc2n1
Outline: as §1

dasatinib = compound: Cc1nc(Nc2ncc(C(=O)Nc3c(C)cccc3Cl)s2)cc(N2CCN(CCO)CC2)n1 [dasatinib]
Outline: as §1

[3] = compound: Cc1ncc(-c2ccnc(Nc3ccc(S(C)(=O)=O)cc3)n2)n1C(C)C
Outline: as §1

[4] = compound: Cn1cc(-c2ccc3c(c2)CCN3C(=O)Cc2cccc(C(F)(F)F)c2)c2c(N)ncnc21
Outline: as §1

[5] = compound: Cn1cc(-c2ccc3nnc(C(F)(F)c4ccc5ncccc5c4)n3n2)cn1
Outline: as §1

tipifarnib = compound: Cn1cncc1[C@@](N)(c1ccc(Cl)cc1)c1ccc2c(c1)c(-c1cccc(Cl)c1)cc(=O)n2C [tipifarnib]
Outline: as §1

[6] = compound: NC(=O)Nc1cc(-c2cccc(F)c2)sc1C(=O)N[C@H]1CCCNC1
Outline: as §1

[7] = compound: NC(=O)c1cnc(N[C@@H]2CCCC[C@@H]2N)nc1Nc1cccc(-n2nccn2)c1
Outline: as §1

[8] = compound: NCC(=O)Nc1ccc(-n2nc(C(F)(F)F)cc2-c2ccc3c(ccc4ccccc43)c2)cc1
Outline: as §1

entinostat = compound: Nc1ccccc1NC(=O)c1ccc(CNC(=O)OCc2cccnc2)cc1 [entinostat]
Outline: as §1

vorinostat = compound: O=C(CCCCCCC(=O)Nc1ccccc1)NO [vorinostat]
Outline: as §1

[9] = compound: O=C1NC(=O)C(c2cnc3ccccn23)=C1c1cn2c3c(cc(F)cc13)CN(C(=O)N1CCCCC1)CC2
Outline: as §1

mubritinib = compound: FC(F)(F)c1ccc(/C=C/c2nc(COc3ccc(CCCCn4ccnn4)cc3)co2)cc1 [mubritinib]
Outline: as §1

[10] = compound: NC1(c2ccc(-c3nc4ccn5c(=O)[nH]nc5c4cc3-c3ccccc3)cc2)CCC1
Outline: as §1

citarinostat = compound: O=C(CCCCCCNC(=O)c1cnc(N(c2ccccc2)c2ccccc2Cl)nc1)NO [citarinostat]
Outline: as §1

silmitasertib = compound: O=C(O)c1ccc2c(c1)nc(Nc1cccc(Cl)c1)c1ccncc12 [silmitasertib]
Outline: as §1

[11] = compound: c1cc(OCCN2CCCCC2)cc(-c2n[nH]c3ccc(-c4nnc[nH]4)cc23)c1
Outline: as §1

Row | Target | log2 fold change (bafetinib) | log2 fold change [1] | log2 fold change (nilotinib) | log2 fold change [2] | log2 fold change (dasatinib) | log2 fold change [3] | log2 fold change [4] | log2 fold change [5] | log2 fold change (tipifarnib) | log2 fold change [6] | log2 fold change [7] | log2 fold change [8] | log2 fold change (entinostat) | log2 fold change (vorinostat) | log2 fold change [9] | log2 fold change (mubritinib) | log2 fold change [10] | log2 fold change (citarinostat) | log2 fold change (silmitasertib) | log2 fold change [11]
1 | MTFR1L (UniProt Q9H019) | inactive: -0.1 | inactive: 0.305 | inactive: 0.014 | inactive: -0.32 | inactive: -0.167 | inactive: -0.038 | inactive: 0.07 | inactive: 0.001 | inactive: -0.062 | inactive: -0.069 | inactive: -0.079 | inactive: -0.005 | inactive: 0.069 | inactive: 0.356 | inactive: -0.014 | – | – | – | – | –
2 | MTRF1L (UniProt Q9UGC7) | inactive: -0.022 | inactive: -0.027 | inactive: -0.063 | inactive: -0.093 | inactive: 0.114 | inactive: 0.004 | inactive: 0.045 | inactive: 0.035 | inactive: 0.019 | – | inactive: 0.029 | inactive: 0.108 | – | inactive: 0.046 | inactive: -0.037 | inactive: 0.034 | inactive: -0.074 | inactive: -0.026 | inactive: 0.089 | inactive: -0.167
3 | MYH16 (UniProt Q9H6N6) | inactive: 0.482 | inactive: 0.303 | inactive: 0.061 | inactive: 0.062 | – | inactive: 0.088 | inactive: 0.068 | – | inactive: -0.248 | inactive: 0.467 | inactive: 0.051 | inactive: 0.051 | inactive: 0.289 | inactive: 0.291 | – | inactive: -0.025 | inactive: -0.057 | – | inactive: -0.044 | –
4 | MT1G (UniProt P13640) | inactive: -0.137 | inactive: 0.112 | inactive: -0.166 | inactive: -0.033 | inactive: 0.099 | inactive: 0.168 | inactive: 0.052 | inactive: -0.084 | inactive: -0.028 | inactive: -0.021 | inactive: 0.14 | inactive: 0.109 | inactive: -0.049 | inactive: 0.181 | – | inactive: -0.034 | inactive: 0.009 | inactive: 0.025 | inactive: 0.058 | inactive: 0.034
5 | MRPS18C (UniProt Q9Y3D5) | inactive: 0.016 | inactive: 0.103 | – | – | inactive: -0.117 | – | inactive: -0.116 | inactive: -0.05 | inactive: 0.062 | inactive: 0.05 | inactive: -0.124 | inactive: 0.009 | inactive: -0.063 | inactive: 0.108 | inactive: 0.013 | inactive: 0.221 | inactive: 0.024 | inactive: -0.038 | inactive: -0.061 | inactive: -0.103
6 | MRPS16 (UniProt Q9Y3D3) | inactive: 0.192 | inactive: 0.151 | inactive: -0.187 | inactive: 0.009 | – | inactive: -0.053 | inactive: 0.049 | inactive: 0.092 | inactive: -0.094 | inactive: 0.026 | inactive: -0.04 | inactive: -0.05 | inactive: 0.075 | inactive: 0.133 | inactive: -0.016 | inactive: 0.16 | inactive: -0.079 | inactive: 0.057 | inactive: -0.063 | inactive: -0.036
7 | MT-ND2 (UniProt P03891) | inactive: 0 | inactive: -0.173 | inactive: -0.006 | inactive: 0.018 | active: -0.459 | inactive: -0.171 | inactive: 0.279 | inactive: 0.11 | inactive: 0.383 | – | inactive: 0.146 | inactive: 0.036 | – | inactive: 0.036 | – | inactive: -0.01 | inactive: -0.128 | – | inactive: -0.01 | –
8 | MTRR isoform 1 (UniProt Q9UBK8) | inactive: -0.06 | inactive: 0.064 | inactive: -0.192 | inactive: 0.011 | inactive: -0.135 | inactive: 0.035 | inactive: 0.047 | inactive: -0.044 | inactive: 0.027 | inactive: -0.015 | inactive: -0.043 | inactive: -0.021 | inactive: -0.004 | inactive: -0.031 | inactive: -0.084 | inactive: 0.054 | inactive: -0.011 | inactive: -0.012 | inactive: 0.114 | inactive: -0.049
9 | MRPS26 (UniProt Q9BYN8) | inactive: 0.275 | inactive: -0.003 | – | – | inactive: -0.031 | – | inactive: 0.007 | inactive: 0.135 | inactive: -0.142 | inactive: -0.067 | inactive: -0.022 | inactive: 0.092 | inactive: 0.022 | inactive: 0.171 | inactive: -0.039 | inactive: 0.088 | inactive: -0.088 | inactive: -0.04 | inactive: -0.044 | inactive: 0
10 | MT-ATP8 (UniProt P03928) | inactive: -0.083 | inactive: -0.23 | inactive: 0.04 | inactive: 0.024 | – | inactive: -0.148 | – | – | – | inactive: 0.213 | inactive: -0.107 | – | inactive: -0.113 | inactive: -0.031 | inactive: -0.316 | inactive: -0.026 | inactive: -0.028 | inactive: -0.154 | inactive: 0.004 | inactive: -0.019
11 | MRPS22 (UniProt P82650) | inactive: 0.233 | inactive: 0.137 | inactive: -0.21 | inactive: 0.044 | inactive: -0.024 | inactive: 0.012 | inactive: 0.003 | inactive: 0.017 | inactive: -0.11 | inactive: -0.008 | inactive: 0.031 | inactive: 0.006 | inactive: 0.027 | inactive: 0.131 | inactive: -0.069 | inactive: 0.15 | inactive: -0.098 | inactive: 0.035 | inactive: -0.071 | inactive: -0.006
